Results taken from patent publication US7205383B2, “Peptide ligands of leukocyte integrins” (Karyon-CTT Ltd., priority 2001, dated 2007).
At least one peptide structure holds a part that was inferred or is arguable (an end, a ring closure or a residue). Bridge positions count the residues as written; N and C are the ends. Peptide text beside a SMILES is read from it.

Tests used:
Format in all cases: cell-based
THP-1 cells [1] = assay: Transwell cell migration assay, LLG-C4-GST-coated filters; details: peptide 200 μM; data not shown
[2] = tested on: β2 integrin-transfected L cells and the leukocytic cell lines THP-1, U937 and Jurkat; assay: Adhesion of β2 integrin-expressing cell lines to immobilized peptide
[3] = tested on: U937 monocytoid leukemia cells on fibrinogen; assay: U937 cell adhesion to fibrinogen; details: data not shown
[4] = tested on: T cells binding to Eahy926 endothelial cells (ICAM-1); assay: T cell binding to TNF-α-stimulated endothelial cell monolayer; details: peptide 50 μM, 45 min
Description: In FIG. 4(B), T cells were allowed to bind to TNF-α-stimulated Eahy endothelial cell monolayers that were grown on microtiter wells. LLG-C4 or RGD-4C was included at a concentration of 50 μM. After a 45 min incubation, the unbound cells were removed by immersing the microtiter plate in a PBS solution, and the bound T cells were determined by the phosphatase assay. The data are the mean ±SD of triplicate wells.
To study T cell binding to an endothelial cell monolayer, Eahy926 endothelial cells were plated on microtiter plates at a density of 5×10^4 cells per well and grown for three days. To stimulate the production of ICAM-1, the cells were further grown for 16 h in the presence of TNF-α at a concentration of 10 ng/ml. T cells (1.5×10^5 per well) were allowed to bind to Eahy926 cells first for 30 min at 4° C., then 15 min at 37° C. The unbound T cells were removed by immersing the microtiter plate up side down in PBS. The bound cells were determined by the phosphatase assay.

THP-1 cells [5] = assay: Transwell cell migration assay, fibrinogen-coated filters; details: peptide 200 μM, 10% serum, 18 h
Description: In FIG. 6(C), Transwell filters were coated both on the upper and lower surface with fibrinogen, or left uncoated, and then saturated with BSA. TBP-1 cells (5×10^4 per filter) were plated on the upper surface of the filter in 10% serum-containing medium. The concentrations of C(1–8;3–9) and C(1–9;3–8) were 200 μM. Following a 18 hour-culture, the cells migrated underneath the filter were determined. The cells were fixed, stained, and then counted under a microscope.
The in vitro migration of THP-1 cells was studied in closely physiological conditions containing 10% serum to not interfere with adhesive properties of cells. Both the upper and lower surfaces of 8 μm pore size Transwell filters were coated with fibrinogen, LLG-C4-GST, or GST at a concentration of 40 μg/ml overnight at 4° C. Free binding sites were blocked by incubation with 5% BSA/TBS. THP-1 cells (5×10^4 in 100 μl) were plated on the upper compartment in 10% FCS-containing medium. The C(1–8;3–9) or C(1–9;3–8) peptide were included at a concentration of 200 μM. The lower compartment was filled with 750 μl of 10% FCS-containing medium. Following a culture for 18 h at 37° C. the filters were immersed in methanol for 15 min, in water for 10 s, and in 0.1% toluidine blue for 5 min. […] Cells were removed from the upper surface of the filter with a cotton swap, and cells migrated on the lower surface were counted microscopically. […]

[6] = tested on: HT1080 fibrosarcoma cells (β1 and β3 integrins); assay: HT1080 cell adhesion on fibronectin or fibrinogen; details: data not shown
[7] = tested on: L929, K562, SKOV-3, KS6717 and Eahy96 cells; assay: Adhesion of non-leukocytic cell lines to immobilized peptide or fusion protein; details: cells pretreated with phorbol ester or not; data not shown
Description: (§1) Fibrinogen, fibronectin, von Wrlnebrand factor, type IV collagen, GST fusion proteins, Fc fusion proteins or synthetic peptides were coated on microtiter wells at a concentration of 2 μg in 50 μl TBS unless otherwise indicated. A recombinant von Willebrand factor and a capturing antibody to it kindly provided by Drs. J. J. Sixma and Ph. G. de Groot (University Medical Center Utrecht, the Netherlands) were also used. To prepare polymerized peptides, glutaraldehyde was added at a final concentration of 0.25%. The wells were saturated with 5% BSA and then washed five times with PBS. Prior to adhesion assays, cells were treated with 50 nM 40-Phorbol 12,13-dibutyrate or with 200 μM P1 peptide (Kotovuori et al., 1999) in serum-free medium for 30 min at room temperature to activate the integrins. Alternatively, cells were stimulated for 60 min at 37° C. with the phorbol ester (50 nM) and the C(1–8;3–9) and RGD-4C peptides each at a 2.5 μM concentration, after which the peptides were removed by washing with PBS/2.5 mM EDTA. Cells were incubated in the microtiter wells (100 000 cells per well) for 60 min at 37° C. in the absence or presence of competing peptides, antibodies or EDTA. […] The bound cells were determined by an assay measuring cellular phosphatase activity. […] The absorbance at 405 nm was read on a microplate reader. […]

[8] = tested on: THP-1 cells on fibrinogen; assay: THP-1 cell adhesion to fibrinogen; details: phorbol ester-stimulated THP-1, 60 min
Description: Following a 60 min incubation the bound cells were determined by the phosphatase assay. The results are the mean ±SD of triplicate wells and were similar in two other experiments.
In FIG. 6(B), to activate integrins, THP-1 cells were stimulated both with phorbol ester (50 nM) and the RGD-4C and C(1–8;3–9) peptides (each 2.5 μM for 1 h. After washing the cells were allowed to bind to fibrinogen-coated wells in the presence of C(1–8;3–9) or RGD-4C or both peptides at the concentrations indicated. After a 30-min incubation the bound cells were determined. The results are the mean ±SD of triplicate wells and were similar in two other experiments. At some data points the SD values are too small to be seen.
Fibrinogen, fibronectin, von Wrlnebrand factor, type IV collagen, GST fusion proteins, Fc fusion proteins or synthetic peptides were coated on microtiter wells at a concentration of 2 μg in 50 μl TBS unless otherwise indicated. A recombinant von Willebrand factor and a capturing antibody to it kindly provided by Drs. J. J. Sixma and Ph. G. de Groot (University Medical Center Utrecht, the Netherlands) were also used. To prepare polymerized peptides, glutaraldehyde was added at a final concentration of 0.25%. […] The bound cells were determined by an assay measuring cellular phosphatase activity. […] The absorbance at 405 nm was read on a microplate reader. […]

THP-1 cells [9] = assay: THP-1 cell adhesion on wells coated with synthetic peptides
Description: In FIG. 2(C), the C(1–8;3–9) and C(1–9;3–8) peptides were coated on microtiter wells by incubating overnight at a concentration of 40 μg/ml in TBS in the absence or presence of glutaraldehyde. Free binding sites on plastic were then blocked with 5% BSA. THP-1 cells ([…]) were allowed to bind for 60 min at 37° C. […] The experiment was repeated twice.
as §1, with “integrins.” for “integrins. Alternatively, cells were stimulated for 60 min at 37° C. with the phorbol ester (50 nM) and the C(1–8;3–9) and RGD-4C peptides each at a 2.5 μM concentration, after which the peptides were removed by washing with PBS/2.5 mM EDTA. Cells were incubated in the microtiter wells (100 000 cells per well) for 60 min at 37° C. in the absence or presence of competing peptides, antibodies or EDTA.”

[10] = tested on: THP-1 cells on fibronectin; assay: THP-1 cell adhesion to fibronectin

## CC(C)C[C@@H]1NC(=O)[C@H](CC(C)C)NC(=O)[C@H](Cc2ccccc2)NC(=O)[C@@H]2CSSC[C@@H](C(=O)O)NC(=O)[C@H](CSSC[C@H](N)C(=O)N3CCC[C@H]3C(=O)N2)NC(=O)CNC1=O [C(1–8;3–9), CPCFLLGCC] (H-CPCFLLGCC-OH; disulfide 1-8, 3-9; N-terminus and C-terminus assumed)
THP-1 cells [1]
  inhibition of THP-1 cell migration on LLG-C4-GST: completely suppressed
[2]
  support of binding of β2 integrin-expressing cell lines: specifically supported the binding of β2 integrin-expressing cell lines
[3]
  inhibition of β2 integrin-mediated fibrinogen binding of U937 cells: similarly inhibited
[4]
  effect on T cell binding to TNF-α-stimulated endothelial cells: similarly inhibited
THP-1 cells [5]
  inhibition of THP-1 cell migration through fibrinogen-coated filter: completely abolished
[6]
  effect on β1 and β3 integrin-mediated binding of HT1080 cells on fibronectin or fibrinogen: no effect
[7]
  binding of non-leukocytic cell lines not expressing β2 integrins: showed no binding
[8]
  inhibition of THP-1 adhesion to fibrinogen: capable of inhibiting
THP-1 cells [9]; peptide coated at 40 μg/ml in presence of glutaraldehyde
  THP-1 cell binding to coated peptide crosslinked with glutaraldehyde: further enhanced cell binding
THP-1 cells [9]; peptide coated at 40 μg/ml, without glutaraldehyde
  THP-1 cell binding to coated peptide: Cells bound
[10]
  inhibition of fibronectin binding by THP-1 cells: no significant inhibition
